Reference: patent US20030162221A1
Results are given in words; binding and its absence hold for the method and conditions named. In cells and extracts the contact can be indirect. Some entries that bind do so weakly or less than the wild type. For part of these data: Sequences can lack the tags named with a protein.

Chains of the proteins cited; added tags and fusions are not shown. Residues count along the entry.
UniProt P52286, residues 2-194: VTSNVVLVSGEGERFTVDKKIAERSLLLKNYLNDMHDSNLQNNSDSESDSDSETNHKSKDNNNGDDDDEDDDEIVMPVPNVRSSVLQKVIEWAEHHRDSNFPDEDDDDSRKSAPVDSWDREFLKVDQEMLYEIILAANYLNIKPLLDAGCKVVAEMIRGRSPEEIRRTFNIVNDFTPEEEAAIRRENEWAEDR
UniProt P16892: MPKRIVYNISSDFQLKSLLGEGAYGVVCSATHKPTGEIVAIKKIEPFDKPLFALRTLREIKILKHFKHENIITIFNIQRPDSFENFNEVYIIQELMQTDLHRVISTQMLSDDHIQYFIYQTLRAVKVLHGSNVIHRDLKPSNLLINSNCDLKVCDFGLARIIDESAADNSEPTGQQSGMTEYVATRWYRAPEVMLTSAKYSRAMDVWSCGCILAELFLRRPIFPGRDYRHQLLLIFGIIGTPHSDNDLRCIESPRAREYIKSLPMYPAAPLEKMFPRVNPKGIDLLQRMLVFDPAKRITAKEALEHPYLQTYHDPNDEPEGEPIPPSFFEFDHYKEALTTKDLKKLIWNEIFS

Key:
[1] = target: T1, Cdc53 (Saccharomyces cerevisiae) (UniProt Q12018); experiment: anti-FLAG co-IP, LC-MS/MS
T1 sequence (looked up): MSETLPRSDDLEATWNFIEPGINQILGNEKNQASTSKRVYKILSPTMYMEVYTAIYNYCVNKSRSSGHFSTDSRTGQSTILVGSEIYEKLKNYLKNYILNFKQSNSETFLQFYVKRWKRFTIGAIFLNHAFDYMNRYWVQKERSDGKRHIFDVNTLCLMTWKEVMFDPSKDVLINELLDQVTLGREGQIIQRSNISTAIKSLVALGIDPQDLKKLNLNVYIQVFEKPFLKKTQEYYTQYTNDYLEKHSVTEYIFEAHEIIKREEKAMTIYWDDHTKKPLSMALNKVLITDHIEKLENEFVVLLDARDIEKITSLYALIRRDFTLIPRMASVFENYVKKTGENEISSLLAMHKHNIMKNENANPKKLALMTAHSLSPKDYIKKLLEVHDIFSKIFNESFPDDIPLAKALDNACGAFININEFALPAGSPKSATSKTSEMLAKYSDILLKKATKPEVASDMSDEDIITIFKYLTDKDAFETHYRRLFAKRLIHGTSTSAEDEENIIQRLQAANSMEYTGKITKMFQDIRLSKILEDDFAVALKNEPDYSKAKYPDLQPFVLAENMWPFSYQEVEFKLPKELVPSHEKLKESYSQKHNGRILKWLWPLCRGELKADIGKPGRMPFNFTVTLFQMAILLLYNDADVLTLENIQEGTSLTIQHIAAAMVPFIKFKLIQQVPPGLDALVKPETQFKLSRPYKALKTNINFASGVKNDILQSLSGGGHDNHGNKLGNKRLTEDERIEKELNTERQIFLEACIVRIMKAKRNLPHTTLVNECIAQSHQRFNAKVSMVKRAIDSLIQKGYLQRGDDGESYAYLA

[2] = target: T2, Hrt1 (Saccharomyces cerevisiae) (UniProt Q08273); experiment: anti-FLAG co-IP, LC-MS/MS
T2 sequence (looked up): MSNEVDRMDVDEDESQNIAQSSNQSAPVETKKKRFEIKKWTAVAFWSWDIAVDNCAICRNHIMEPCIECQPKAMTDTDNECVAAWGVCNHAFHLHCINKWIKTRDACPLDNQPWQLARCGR

[3] = target: T3, Met31 (Saccharomyces cerevisiae) (UniProt Q03081); experiment: anti-FLAG co-IP, LC-MS/MS
T3 sequence (looked up): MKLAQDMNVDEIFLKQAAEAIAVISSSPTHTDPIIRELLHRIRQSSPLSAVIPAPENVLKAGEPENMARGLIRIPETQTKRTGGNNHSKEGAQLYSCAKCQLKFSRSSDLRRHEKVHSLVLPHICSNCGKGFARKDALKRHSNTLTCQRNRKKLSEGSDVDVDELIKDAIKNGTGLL

[4] = target: T4, Met4 (Saccharomyces cerevisiae) (UniProt P32389); experiment: anti-FLAG co-IP, LC-MS/MS
T4 sequence (looked up): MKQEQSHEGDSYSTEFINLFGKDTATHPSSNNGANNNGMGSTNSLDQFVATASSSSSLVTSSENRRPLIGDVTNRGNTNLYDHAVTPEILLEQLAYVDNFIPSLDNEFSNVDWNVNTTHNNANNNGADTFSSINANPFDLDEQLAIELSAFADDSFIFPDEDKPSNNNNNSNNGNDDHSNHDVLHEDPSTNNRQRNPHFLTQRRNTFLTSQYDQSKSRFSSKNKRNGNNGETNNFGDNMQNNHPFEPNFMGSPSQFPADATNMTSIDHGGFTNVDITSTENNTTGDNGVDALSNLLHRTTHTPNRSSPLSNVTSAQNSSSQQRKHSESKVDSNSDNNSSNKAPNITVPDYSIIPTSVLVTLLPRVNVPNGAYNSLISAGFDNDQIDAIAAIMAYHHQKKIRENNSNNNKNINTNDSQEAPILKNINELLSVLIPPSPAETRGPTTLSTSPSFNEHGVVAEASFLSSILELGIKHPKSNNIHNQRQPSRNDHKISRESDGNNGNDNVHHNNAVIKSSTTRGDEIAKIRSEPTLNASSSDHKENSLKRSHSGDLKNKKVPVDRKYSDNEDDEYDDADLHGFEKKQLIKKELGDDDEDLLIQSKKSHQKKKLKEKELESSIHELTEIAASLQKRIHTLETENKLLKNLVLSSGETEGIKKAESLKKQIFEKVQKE

[5] = target: T5, Rub1 (Saccharomyces cerevisiae) (UniProt Q03919); experiment: anti-FLAG co-IP, LC-MS/MS
T5 sequence (looked up): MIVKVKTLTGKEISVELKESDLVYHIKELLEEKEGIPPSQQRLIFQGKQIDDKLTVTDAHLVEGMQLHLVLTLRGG

[6] = target: Skp1 (Saccharomyces cerevisiae) (UniProt P52286); experiment: anti-FLAG co-IP, LC-MS/MS
[7] = target: T1, Cdc53 (Saccharomyces cerevisiae); experiment: anti-FLAG co-IP, LC-MS/MS; bait Met30 by Table 2
[8] = target: T2, Hrt1 (Saccharomyces cerevisiae); experiment: anti-FLAG co-IP, LC-MS/MS; bait Met30 by Table 2
[9] = target: T3, Met31 (Saccharomyces cerevisiae); experiment: anti-FLAG co-IP, LC-MS/MS; bait Met30 by Table 2
[10] = target: T4, Met4 (Saccharomyces cerevisiae); experiment: anti-FLAG co-IP, LC-MS/MS; bait Met30 by Table 2
[11] = target: T5, Rub1 (Saccharomyces cerevisiae); experiment: anti-FLAG co-IP, LC-MS/MS; bait Met30 by Table 2
[12] = target: Skp1 (Saccharomyces cerevisiae) (UniProt P52286); experiment: anti-FLAG co-IP, LC-MS/MS; bait Met30 by Table 2
[13] = target: Fus3 (Saccharomyces cerevisiae) (UniProt P16892); experiment: anti-FLAG co-IP, LC-MS/MS
[14] = target: T6, Kss1 (Saccharomyces cerevisiae) (UniProt P14681); experiment: anti-FLAG co-IP, LC-MS/MS
T6 sequence (looked up): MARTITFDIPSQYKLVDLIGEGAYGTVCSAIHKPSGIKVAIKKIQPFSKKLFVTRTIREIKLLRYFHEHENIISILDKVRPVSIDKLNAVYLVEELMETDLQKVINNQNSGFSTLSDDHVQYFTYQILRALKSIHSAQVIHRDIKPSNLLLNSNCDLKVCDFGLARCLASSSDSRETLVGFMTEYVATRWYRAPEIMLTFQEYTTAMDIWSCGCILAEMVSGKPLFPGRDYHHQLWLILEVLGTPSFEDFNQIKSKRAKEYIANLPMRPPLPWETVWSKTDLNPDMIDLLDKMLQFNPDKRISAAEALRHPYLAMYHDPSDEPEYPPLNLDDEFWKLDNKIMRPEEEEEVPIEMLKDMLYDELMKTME

[15] = target: T7, Slt2 (Saccharomyces cerevisiae) (UniProt Q00772); experiment: anti-FLAG co-IP, LC-MS/MS
T7 sequence (looked up): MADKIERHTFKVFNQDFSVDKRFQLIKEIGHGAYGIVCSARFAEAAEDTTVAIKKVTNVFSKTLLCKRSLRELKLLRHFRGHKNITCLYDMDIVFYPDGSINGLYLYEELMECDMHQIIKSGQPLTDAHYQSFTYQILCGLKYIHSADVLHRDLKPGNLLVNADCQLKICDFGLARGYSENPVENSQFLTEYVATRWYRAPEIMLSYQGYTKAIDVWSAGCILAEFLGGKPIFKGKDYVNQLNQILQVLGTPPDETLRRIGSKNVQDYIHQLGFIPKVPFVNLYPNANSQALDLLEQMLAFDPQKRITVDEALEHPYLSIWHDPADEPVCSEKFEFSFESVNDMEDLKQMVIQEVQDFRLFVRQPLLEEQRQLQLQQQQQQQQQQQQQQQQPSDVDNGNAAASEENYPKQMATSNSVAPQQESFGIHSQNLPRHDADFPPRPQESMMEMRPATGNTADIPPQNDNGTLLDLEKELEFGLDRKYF

Measured: binding

B1: Met30 (protein, Saccharomyces cerevisiae, UniProt P39014 1-640, looked up)
chain: MRRERQRMMSFEDKDKDDLDNSNSNNSSEMTDTAMMPPLKRLLITGSSDDLAQGSSGKKKMTMATRSPSSSPDLATNDSGTRVQPLPEYNFTKFCYRHNPDIQFSPTHTACYKQDLKRTQEINANIAKLPLQEQSDIHHIISKYSNSNDKIRKLILDGILSTSCFPQLSYISSLVTHMIKIDFISILPQELSLKILSYLDCQSLCNATRVCRKWQKLADDDRVWYHMCEQHIDRKCPNCGWGLPLLHMKRARIQQNSTGSSSNADIQTQTTRPWKVIYRERFKVESNWRKGHCRIQEFKGHMDGVLTLQFNYRLLFTGSYDSTIGIWDLFTGKLIRRLSGHSDGVKTLYFDDRKLITGSLDKTIRVWNYITGECISTYRGHSDSVLSVDSYQKVIVSGSADKTVKVWHVESRTCYTLRGHTEWVNCVKLHPKSFSCFSCSDDTTIRMWDIRTNSCLKVFRGHVGQVQKIIPLTIKDVENLATDNTSDGSSPQDDPTMTDGADESDTPSNEQETVLDENIPYPTHLLSCGLDNTIKLWDVKTGKCIRTQFGHVEGVWDIAADNFRIISGSHDGSIKVWDLQSGKCMHTFNGRRLQRETQHTQTQSLGDKVAPIACVCIGDSECFSGDEFGCVKMYKFDLND
not listed: [13] | [14] | [15]
binds: all other assays above

B2: Msg5 (protein, Saccharomyces cerevisiae, UniProt P38590 1-489, looked up)
chain: MQFHSDKQHLDSKTDIDFKPNSPRSLQNRNTKNLSLDIAALHPLMEFSSPSQDVPGSVKFPSPTPLNLFMKPKPIVLEKCPPKVSPRPTPPSLSMRRSEASIYTLPTSLKNRTVSPSVYTKSSTVSSISKLSSSSPLSSFSEKPHLNRVHSLSVKTKDLKLKGIRGRSQTISGLETSTPISSTREGTLDSTDVNRFSNQKNMQTTLIFPEEDSDLNIDMVHAEIYQRTVYLDGPLLVLPPNLYLYSEPKLEDILSFDLVINVAKEIPNLEFLIPPEMAHKIKYYHIEWTHTSKIVKDLSRLTRIIHTAHSQGKKILVHCQCGVSRSASLIVAYIMRYYGLSLNDAYNKLKGVAKDISPNMGLIFQLMEWGTMLSKNSPGEEGETVHMPEEDDIGNNEVSSTTKSYSSASFRSFPMVTNLSSSPNDSSVNSSEVTPRTPATLTGARTALATERGEDDEHCKSLSQPADSLEASVDNESISTAPEQMMFLP
binds: [13] | [14] | [15]
